Assay results reported in PubChem BioAssay (EPA / NIEHS).
This list was built around the results that the source calls inconclusive (neither active nor inactive); the mix of calls is not that of the screen. For some of these results: A potency beside an inconclusive call is a rough fit, not a confirmed value. The source made the active and inactive calls. How the source made its calls: active means hit-call score of the fitted dose curve at least 0.9, where 1 is the maximum; inconclusive means response in the unintended direction; inactive means score below 0.9.

By UniProt entry, the sequences of proteins in these tests, tags left out. Where a name states a change or a piece, a line headed by the entry shows the natural chain unless it says otherwise.
UniProt P10276, whole entry, looked up: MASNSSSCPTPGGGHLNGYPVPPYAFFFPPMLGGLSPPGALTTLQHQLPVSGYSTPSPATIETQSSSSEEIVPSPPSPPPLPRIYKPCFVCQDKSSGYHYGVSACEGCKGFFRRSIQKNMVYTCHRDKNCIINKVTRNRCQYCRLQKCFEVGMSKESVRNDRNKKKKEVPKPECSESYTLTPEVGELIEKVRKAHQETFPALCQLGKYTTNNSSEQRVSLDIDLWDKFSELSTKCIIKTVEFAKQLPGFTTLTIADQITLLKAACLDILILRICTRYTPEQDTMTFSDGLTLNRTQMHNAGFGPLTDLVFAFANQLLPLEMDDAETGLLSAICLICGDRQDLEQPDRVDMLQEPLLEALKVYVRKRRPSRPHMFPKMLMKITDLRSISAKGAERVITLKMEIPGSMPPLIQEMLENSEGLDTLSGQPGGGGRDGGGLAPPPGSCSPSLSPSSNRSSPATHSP
UniProt Q96RI1: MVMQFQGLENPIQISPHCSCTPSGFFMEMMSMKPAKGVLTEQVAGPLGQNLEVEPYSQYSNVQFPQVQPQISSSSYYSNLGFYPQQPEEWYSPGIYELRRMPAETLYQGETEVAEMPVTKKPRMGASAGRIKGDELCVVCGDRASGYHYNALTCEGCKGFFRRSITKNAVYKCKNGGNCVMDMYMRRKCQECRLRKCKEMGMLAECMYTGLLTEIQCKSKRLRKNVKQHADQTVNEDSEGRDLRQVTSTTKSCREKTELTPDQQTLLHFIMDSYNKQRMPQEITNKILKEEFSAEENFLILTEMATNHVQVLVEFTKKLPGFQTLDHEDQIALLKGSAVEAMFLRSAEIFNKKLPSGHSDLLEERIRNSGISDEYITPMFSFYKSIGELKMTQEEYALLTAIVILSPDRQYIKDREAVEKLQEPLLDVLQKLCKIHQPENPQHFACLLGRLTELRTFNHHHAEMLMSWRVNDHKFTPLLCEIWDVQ
UniProt P42336, whole entry, looked up: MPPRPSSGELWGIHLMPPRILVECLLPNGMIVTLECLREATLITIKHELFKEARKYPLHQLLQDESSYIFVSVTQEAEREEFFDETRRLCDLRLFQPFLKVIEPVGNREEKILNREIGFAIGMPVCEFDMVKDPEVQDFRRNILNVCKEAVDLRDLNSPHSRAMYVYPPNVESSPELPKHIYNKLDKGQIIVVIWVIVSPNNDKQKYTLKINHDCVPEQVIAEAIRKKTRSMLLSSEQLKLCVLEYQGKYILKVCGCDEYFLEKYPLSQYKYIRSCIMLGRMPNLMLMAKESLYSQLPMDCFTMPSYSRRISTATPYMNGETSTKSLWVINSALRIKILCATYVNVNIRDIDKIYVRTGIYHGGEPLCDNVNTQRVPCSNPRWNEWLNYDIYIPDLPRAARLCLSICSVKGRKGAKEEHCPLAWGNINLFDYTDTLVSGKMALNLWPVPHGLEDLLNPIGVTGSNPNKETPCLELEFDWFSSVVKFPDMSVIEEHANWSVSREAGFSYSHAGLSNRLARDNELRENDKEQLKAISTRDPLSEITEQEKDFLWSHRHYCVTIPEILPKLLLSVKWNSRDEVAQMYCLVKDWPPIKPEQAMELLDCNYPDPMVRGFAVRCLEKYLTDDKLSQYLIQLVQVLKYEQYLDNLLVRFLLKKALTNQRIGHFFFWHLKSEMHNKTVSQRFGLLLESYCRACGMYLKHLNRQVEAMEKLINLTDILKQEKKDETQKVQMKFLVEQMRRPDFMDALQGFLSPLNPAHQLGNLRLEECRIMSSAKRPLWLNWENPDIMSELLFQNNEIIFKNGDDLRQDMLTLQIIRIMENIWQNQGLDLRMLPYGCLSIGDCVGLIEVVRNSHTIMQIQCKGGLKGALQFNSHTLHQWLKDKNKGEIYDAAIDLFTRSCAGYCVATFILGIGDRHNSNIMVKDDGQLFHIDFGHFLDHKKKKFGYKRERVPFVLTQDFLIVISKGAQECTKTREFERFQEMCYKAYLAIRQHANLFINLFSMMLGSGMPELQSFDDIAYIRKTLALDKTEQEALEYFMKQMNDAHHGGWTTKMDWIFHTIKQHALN
UniProt P10275: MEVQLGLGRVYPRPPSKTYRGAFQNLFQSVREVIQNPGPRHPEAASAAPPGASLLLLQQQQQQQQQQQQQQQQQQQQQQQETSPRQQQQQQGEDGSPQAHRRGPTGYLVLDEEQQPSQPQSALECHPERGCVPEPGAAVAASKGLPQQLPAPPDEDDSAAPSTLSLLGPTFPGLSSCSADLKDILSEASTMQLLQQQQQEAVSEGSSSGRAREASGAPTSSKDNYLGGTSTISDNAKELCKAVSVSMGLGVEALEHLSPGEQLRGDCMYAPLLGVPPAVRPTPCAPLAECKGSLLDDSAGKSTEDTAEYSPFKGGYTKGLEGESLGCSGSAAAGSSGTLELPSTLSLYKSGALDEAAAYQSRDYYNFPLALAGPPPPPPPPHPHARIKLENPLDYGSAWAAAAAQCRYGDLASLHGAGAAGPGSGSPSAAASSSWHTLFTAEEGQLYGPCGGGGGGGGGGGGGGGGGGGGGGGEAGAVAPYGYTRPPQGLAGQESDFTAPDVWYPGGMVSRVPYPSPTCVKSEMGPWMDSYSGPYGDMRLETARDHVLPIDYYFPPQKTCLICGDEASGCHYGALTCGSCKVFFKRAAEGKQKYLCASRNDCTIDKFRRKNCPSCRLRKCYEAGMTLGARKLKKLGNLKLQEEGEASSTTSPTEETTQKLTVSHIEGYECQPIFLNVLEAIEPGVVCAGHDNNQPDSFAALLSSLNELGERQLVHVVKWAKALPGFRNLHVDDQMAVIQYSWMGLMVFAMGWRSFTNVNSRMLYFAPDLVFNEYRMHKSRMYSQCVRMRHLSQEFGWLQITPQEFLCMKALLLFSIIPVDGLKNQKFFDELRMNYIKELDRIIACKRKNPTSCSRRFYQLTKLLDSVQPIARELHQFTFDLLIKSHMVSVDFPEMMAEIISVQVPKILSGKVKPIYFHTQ
UniProt P49841: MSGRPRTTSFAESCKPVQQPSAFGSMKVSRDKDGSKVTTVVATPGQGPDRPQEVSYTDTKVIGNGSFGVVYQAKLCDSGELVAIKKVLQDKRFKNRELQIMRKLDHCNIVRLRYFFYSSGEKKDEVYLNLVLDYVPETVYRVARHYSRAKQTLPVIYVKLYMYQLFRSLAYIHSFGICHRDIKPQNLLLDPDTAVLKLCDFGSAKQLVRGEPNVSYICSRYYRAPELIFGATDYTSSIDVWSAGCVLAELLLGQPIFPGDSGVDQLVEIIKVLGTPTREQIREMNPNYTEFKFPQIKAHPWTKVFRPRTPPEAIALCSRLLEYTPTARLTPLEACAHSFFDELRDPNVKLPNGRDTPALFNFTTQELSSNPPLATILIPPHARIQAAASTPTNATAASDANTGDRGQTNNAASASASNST
UniProt P49884, whole entry, looked up: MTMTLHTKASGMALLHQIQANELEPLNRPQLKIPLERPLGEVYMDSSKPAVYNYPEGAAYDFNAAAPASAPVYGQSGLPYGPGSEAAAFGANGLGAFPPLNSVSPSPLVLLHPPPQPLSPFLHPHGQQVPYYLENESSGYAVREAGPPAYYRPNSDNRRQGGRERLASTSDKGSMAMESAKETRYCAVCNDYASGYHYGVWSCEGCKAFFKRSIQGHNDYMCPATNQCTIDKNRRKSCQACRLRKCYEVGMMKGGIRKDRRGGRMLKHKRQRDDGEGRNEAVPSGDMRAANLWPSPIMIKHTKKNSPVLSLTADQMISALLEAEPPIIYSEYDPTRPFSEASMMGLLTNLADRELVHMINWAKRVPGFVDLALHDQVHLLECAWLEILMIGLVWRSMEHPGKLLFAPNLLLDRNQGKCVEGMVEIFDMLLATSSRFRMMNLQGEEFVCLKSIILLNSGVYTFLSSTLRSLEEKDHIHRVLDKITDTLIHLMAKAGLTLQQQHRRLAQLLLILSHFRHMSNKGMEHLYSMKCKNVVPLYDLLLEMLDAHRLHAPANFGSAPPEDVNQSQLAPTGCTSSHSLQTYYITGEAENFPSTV
UniProt P03372, whole entry, looked up: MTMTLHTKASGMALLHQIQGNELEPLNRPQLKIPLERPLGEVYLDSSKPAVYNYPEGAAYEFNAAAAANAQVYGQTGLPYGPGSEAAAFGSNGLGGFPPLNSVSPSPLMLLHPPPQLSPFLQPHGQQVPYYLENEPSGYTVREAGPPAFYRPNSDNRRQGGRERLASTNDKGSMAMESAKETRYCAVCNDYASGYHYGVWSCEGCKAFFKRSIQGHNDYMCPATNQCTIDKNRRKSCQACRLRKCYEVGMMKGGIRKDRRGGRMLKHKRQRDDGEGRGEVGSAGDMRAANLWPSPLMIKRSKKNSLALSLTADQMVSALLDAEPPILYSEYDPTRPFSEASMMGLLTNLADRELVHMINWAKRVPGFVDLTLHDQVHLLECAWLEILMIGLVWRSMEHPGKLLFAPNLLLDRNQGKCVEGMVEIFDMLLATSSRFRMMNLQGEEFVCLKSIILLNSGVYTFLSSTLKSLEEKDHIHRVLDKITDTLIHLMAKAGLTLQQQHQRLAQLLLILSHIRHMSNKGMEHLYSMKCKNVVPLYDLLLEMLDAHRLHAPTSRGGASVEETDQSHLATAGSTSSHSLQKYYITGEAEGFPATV
UniProt P27815: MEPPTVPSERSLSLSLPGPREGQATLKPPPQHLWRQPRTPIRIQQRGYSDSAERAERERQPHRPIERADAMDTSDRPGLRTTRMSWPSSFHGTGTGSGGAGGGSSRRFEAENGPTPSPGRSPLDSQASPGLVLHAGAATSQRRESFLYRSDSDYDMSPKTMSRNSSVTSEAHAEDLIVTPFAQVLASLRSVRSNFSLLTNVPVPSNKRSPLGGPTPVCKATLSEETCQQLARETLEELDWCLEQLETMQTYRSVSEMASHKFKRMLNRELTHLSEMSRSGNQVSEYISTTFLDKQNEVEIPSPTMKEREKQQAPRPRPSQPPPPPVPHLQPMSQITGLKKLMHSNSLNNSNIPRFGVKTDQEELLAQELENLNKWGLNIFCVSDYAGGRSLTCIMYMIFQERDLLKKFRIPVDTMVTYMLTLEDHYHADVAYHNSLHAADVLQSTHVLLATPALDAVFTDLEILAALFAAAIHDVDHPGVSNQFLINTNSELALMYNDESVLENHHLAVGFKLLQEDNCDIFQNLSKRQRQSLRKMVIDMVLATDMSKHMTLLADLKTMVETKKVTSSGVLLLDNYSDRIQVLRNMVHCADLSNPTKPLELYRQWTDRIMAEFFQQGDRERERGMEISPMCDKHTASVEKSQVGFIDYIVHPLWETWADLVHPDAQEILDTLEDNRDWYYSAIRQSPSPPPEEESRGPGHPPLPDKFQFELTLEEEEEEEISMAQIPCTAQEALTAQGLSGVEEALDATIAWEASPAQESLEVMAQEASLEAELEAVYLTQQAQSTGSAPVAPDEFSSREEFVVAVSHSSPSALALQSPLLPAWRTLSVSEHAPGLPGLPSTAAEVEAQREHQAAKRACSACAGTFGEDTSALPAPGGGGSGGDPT

How the values were obtained:
[1] = molecular target: Retinoic acid receptor alpha (Homo sapiens) (UniProt P10276); experiment: NVS_NR_hRAR_Antagonist: NovaScreen (NVS) Nuclear Receptor Binding Assay for human Retinoic Acid Alpha Receptor Antagonism (RAR) (AID 2283358)
Method in brief: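 TR-FRET, cell-free, antagonist format; 2 h incubation after dosing; DMSO = baseline; signal loss fitted; 25 uM duplicate primary, then conc. series.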

[2] = Tanguay_ZF_120hpf_YSE_legacy: (Legacy) Oregon State University Tanguay Lab 120 Hour Post-fertilization zebrafish Assay for Yolk Sac Edema (AID 2283634);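 on AC50: actives raise the incidence of yolk sac edema above the DMSO baseline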
Method in brief: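 Readout: presence or absence of yolk sac edema at 120 hpf, fitted upward against DMSO controls. Exposure ran statically from 6 hpf in dechorionated embryos kept at 28C.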

[3] = Tanguay_ZF_120hpf_EYE_legacy: (Legacy) Oregon State University Tanguay Lab 120 Hour Post-fertilization zebrafish Assay for Eye Malformation (AID 2283636)
Method in brief: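 Read-out is binary presence or absence of eye malformation, scored by brightfield microscopy at 120 hpf. Single larvae were exposed from 6 hpf in embryo medium containing 0.64% DMSO, with DMSO as baseline.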

[4] = Tanguay_ZF_120hpf_BRAI_legacy: (Legacy) Oregon State University Tanguay Lab 120 Hour Post-fertilization zebrafish Assay for Brain Malformation (AID 2283641)
Method in brief: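 Brain malformation in Tropical 5D zebrafish was recorded as a binary endpoint after static compound exposure from early development to 120 hpf at 28C. Activity was analysed against DMSO as negative control.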

[5] = CCTE_Shafer_MEA_acute_AB: CCTE's Alamar Blue Assay for Cytotoxicity in the Neural Acute Assay, Shafer Lab (AID 2284069);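 further: active compounds lower the viability signal compared with DMSO wells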
Method in brief: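 Resazurin reduction (CellTiter Blue, 1:6 in fresh medium) read at ex 544/em 590 nm marks viability loss relative to DMSO. Cells: primary rat cortical neuron networks on microelectrode arrays, treated after baseline recording at 13 or 15 days in vitro.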

[6] = Tanguay_ZF_120hpf_SNOU_legacy: (Legacy) Oregon State University Tanguay Lab 120 Hour Post-fertilization zebrafish Assay for Snout Malformation (AID 2283637)
Method in brief: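 Snout malformation read as a yes/no call on brightfield images of 120 hpf larvae (Tropical 5D strain). Static exposure began at 6 hpf on dechorionated embryos in 0.64% DMSO, with gain of signal analysed versus DMSO controls.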

[7] = molecular target: Bile acid receptor (Homo sapiens) (UniProt Q96RI1); experiment: OT_FXR_FXRSRC1_0480: Odyssey Thera (OT) 8-hour HEK293T Protein-Complementation Assay for Farnesoid X receptor/SRC-1 Co-activator (AID 2283383)
Method in brief: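 HEK293T protein-fragment complementation assay: FXR and SRC-1 coactivator are fused to reporter fragments, and their interaction restores a fluorescent reporter. Readout was taken 8 h after dosing, with gain of signal fit relative to DMSO.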

[8] = molecular target: human Phosphoinositide 3-kinase alpha (PI3Ka), PIK3CA (gene 5290) (UniProt P42336); experiment: NVS_ENZ_hPI3Ka: NovaScreen (NVS) Enzymatic Assay for human Phosphoinositide 3-kinase alpha (PI3Ka) (AID 2283196)
Method in brief: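 Enzyme activity as fluorescence after mobility-shift separation of substrate and product, 1 h reaction, recombinant human PI3Kα; concentration-response to 50 uM max for chemicals passing a 25 uM duplicate screen.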

[9] = molecular target: human Adenosine A2a Receptor (AdoRA2a), ADORA2A (gene 135) (UniProt P29274); experiment: NVS_GPCR_hAdoRA2a: NovaScreen (NVS) G Protein-Coupled Receptor Assay for human Adenosine A2a Receptor (AdoRA2a) (AID 2283256)
Method in brief: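 Radioligand displacement on HEK293-derived membrane protein, cell-free; filter-based scintillation counting 1.5 hours after dosing, loss of signal vs DMSO. Single-point duplicate screen at 25 uM, actives retested in concentration series.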

[10] = molecular target: Ratio of Nucleoli Translocation and Cytoplasm, AR (gene 367) (UniProt P10275); experiment: UPITT_HCI_U2OS_AR_TIF2_Nucleoli_Cytoplasm_Ratio_Agonist: University of Pittsburgh U2OS Androgen Receptor-Transcriptional Intermediary Factor 2 (AR-TIF2) Agonism High Content Imaging Assay for Ratio of Nucleoli Translocation and Cytoplasm (AID 2284000);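 further: hits raise the red nucleolar to cytoplasm ratio above vehicle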
Method in brief: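 Read-out first: nucleolar-to-cytoplasm ratio of red (AR-RFP) signal, quantified by high-content imaging in U2OS cells co-expressing TIF2-GFP. Activity is scored as signal increase over DMSO. Single-point screening used 20 uM final (0.2% DMSO).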

[11] = CCTE_Mundy_HCI_hNP1_Pro_ResponderAvgInten: CCTE's Proliferation Assay in human neuroprogenitor cells, Mundy Lab (AID 2284224);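 further: human neural progenitor cells hNP1 derived from WA09 embryonic stem cells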
Method in brief: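 Proliferation was scored as BrdU labelling intensity in human neural progenitors derived from WA09 embryonic cells, measured 26.25 hours after chemical dosing. Activity was fitted relative to DMSO.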

[12] = molecular target: Glycogen synthase kinase-3 beta (Homo sapiens) (UniProt P49841); experiment: NVS_ENZ_hGSK3b: NovaScreen (NVS) Enzymatic Assay for human Glycogen Synthase Kinase-3 beta (GSK3b) (AID 2283165)
Method in brief: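 Recombinant enzyme with specific fluorescent substrate, 1 h, product separated by electrophoretic mobility shift. Primary duplicate screen at 25 uM; actives (e.g. 30% inhibition) followed in singleton concentration-response to 50 uM. Signal loss fitted versus DMSO.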

[13] = Tanguay_ZF_120hpf_NC_legacy: (Legacy) Oregon State University Tanguay Lab 120 Hour Post-fertilization zebrafish Assay for Notochord and Tail Malformation (AID 2283656)
Method in brief: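 Dechorionated Tropical 5D wild-type zebrafish embryos, one per well from 6 hpf, statically exposed to 120 hpf at 28C in 0.64% DMSO final. Notochord distortion scored present/absent by brightfield; dead embryos excluded.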

[14] = molecular target: bovine Estrogen Receptor (ER), ESR1 (gene 407238) (UniProt P49884); experiment: NVS_NR_bER: NovaScreen (NVS) Nuclear Receptor Binding Assay for bovine Estrogen Receptor (ER) (AID 2283345);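 further: actives lower the bound radioligand count which means they displace the ER ligand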
Method in brief: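 Displacement of a radioligand from estrogen receptor in bovine uterine membrane preparations; scintillation signal taken at 18 hours, DMSO as baseline. Single-concentration duplicates (25 uM) preceded concentration-response follow-up of actives.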

[15] = molecular target: Estrogen receptor (Homo sapiens) (UniProt P03372); experiment: NVS_NR_hER: NovaScreen (NVS) Nuclear Receptor Binding Assay for human Estrogen Receptor (ER) (AID 2283348)
Method in brief: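 Scintillation signal from bound radioligand was measured 18 hours after chemical addition to cell-free MCF7 protein extracts, with DMSO as baseline. Activity was scored as signal loss; compounds ran first at 25 uM in duplicate.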

[16] = molecular target: human Phosphodiesterase 4A1 (PDE4A1), PDE4A (gene 5141) (UniProt P27815); experiment: NVS_ENZ_hPDE4A1: NovaScreen (NVS) Enzymatic Assay for human Phosphodiesterase 4A1 (PDE4A1) (AID 2283191)
Method in brief: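 Cell-free recombinant human PDE4A1 with fluorescent substrate; product separated by electrophoretic mobility shift, 1 h. Screened at 25 uM, then up to 50 uM in concentration-response; loss of signal fitted against DMSO.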

[17] = Tanguay_ZF_120hpf_CFIN_legacy: (Legacy) Oregon State University Tanguay Lab 120 Hour Post-fertilization zebrafish Assay for Caudal Fin Malformation (AID 2283649)
Method in brief: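 Embryos were collected from Tropical 5D wild-type adults and dechorionated at 4 hpf. At 6 hpf each was exposed, one per well, at 0.64% DMSO and 28C. At 120 hpf fin morphology was scored; dead embryos were excluded.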

[18] = Tanguay_ZF_120hpf_AXIS_legacy: (Legacy) Oregon State University Tanguay Lab 120 Hour Post-fertilization zebrafish Assay for Body Axis Malformation (AID 2283635);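 further: potency for an increased fraction of larvae scored with body axis malformation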
Method in brief: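 Static 6–120 hpf chemical exposure of dechorionated wild-type 5D zebrafish, one per well at 28C; morphology endpoint scored binary at 120 hpf relative to DMSO control.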

Cc1cc(C)c(O)c(C)c1
AC50 [1]: inconclusive: 9.66 µM
AC50 [2]: inconclusive: 164 µM
AC50 [3]: inconclusive: 9.49 µM
AC50 [4]: inconclusive: 116 µM

CCCC(=O)O
outcome [6]: inactive

CCCCCCCCCCCC
AC50 [1]: active: 3.51 µM
AC50 [5]: inconclusive: 15 µM

CCCCOCCO
AC50 [2]: inconclusive: 202 µM

CCN(Cc1cccc(S(=O)(=O)O)c1)c1ccc(C(=C2C=CC(=[N+](CC)Cc3cccc(S(=O)(=O)O)c3)C=C2)c2ccc(O)cc2S(=O)(=O)[O-])cc1
AC50 [1]: active: 7.39 µM
AC50 [7]: inconclusive: 3.65 µM

CCCCCCCCCCCCCCCCCC[N+](C)(C)Cc1ccccc1
AC50 [8]: inconclusive: 3.33 µM
AC50 [9]: inconclusive: 6.29 µM

C[C@H]1O[C@@H](O[C@H]2[C@@H](O)C[C@H](O[C@H]3[C@@H](O)C[C@H](O[C@H]4CC[C@@]5(C)[C@H](CC[C@@H]6[C@@H]5C[C@@H](O)[C@]5(C)[C@@H](C7=CC(=O)OC7)CC[C@]65O)C4)O[C@@H]3C)O[C@@H]2C)C[C@H](O)[C@@H]1O
AC50 [7]: inconclusive: 0.215 µM
AC50 [10]: inconclusive: 33.8 µM

O=S(=O)(O)c1ccccc1
outcome [7]: inactive

NC(N)=Nc1nc(CSCCC(N)=NS(N)(=O)=O)cs1
outcome [5]: inactive
outcome [11]: inactive

On1ccccc1=S
AC50 [12]: inconclusive: 25 µM
AC50 [2]: active: 0.0413 µM
AC50 [3]: inconclusive: 200 µM
AC50 [6]: active: 0.206 µM
AC50 [13]: active: 0.561 µM

COc1cc(NC(=O)CC(C)=O)c(OC)cc1Cl
AC50 [14]: inconclusive: 25 µM
outcome [15]: inactive

OCCCCC(O)CO (centres undefined)
AC50 [8]: active: 0.803 µM

CCOC(=O)C(C)(C)Oc1ccc(Cl)cc1
AC50 [16]: inconclusive: 25 µM
AC50 [9]: inconclusive: 25 µM
AC50 [6]: inconclusive: 10.2 µM
AC50 [17]: active: 69.7 µM

CC(C)NCC(O)c1ccc(O)c(O)c1 (centres undefined)
outcome [16]: inactive
outcome [2]: inactive

CN(C)C(=O)NC1(c2ccccc2)CCN(CC[C@@]2(c3ccc(F)c(F)c3)CN(C(=O)c3ccccc3)CCO2)CC1
AC50 [16]: inconclusive: 4.66 µM

O=C(O)CCN(C1(C(=O)NO)CCCC1)S(=O)(=O)c1ccc(Oc2ccc(F)cc2)cc1
AC50 [18]: inconclusive: 2.74 µM

S=c1[nH]c2ccccc2s1
AC50 [4]: active: 40.7 µM
AC50 [17]: active: 31.9 µM
AC50 [13]: active: 51.8 µM

CCCCC(CC)COP(=O)(O)OCC(CC)CCCC (centres undefined)
AC50 [14]: inconclusive: 25 µM
AC50 [5]: inconclusive: 15 µM

O=C(CC(C(=O)OC1CCCCC1)S(=O)(=O)O)OC1CCCCC1 (centres undefined)
AC50 [7]: inconclusive: 49.5 µM

CC(O)CN (centres undefined)
outcome [15]: inactive

COC(=O)C(C)Oc1ccc(Oc2ncc(C(F)(F)F)cc2Cl)cc1 (centres undefined)
AC50 [14]: inconclusive: 0.0569 µM
AC50 [15]: inconclusive: 1.67 µM

CCCCOC(=O)CCCCC(=O)OCCCC
AC50 [16]: inconclusive: 25 µM
AC50 [8]: inconclusive: 0.065 µM
AC50 [1]: inconclusive: 25 µM
AC50 [18]: inconclusive: 38.9 µM
AC50 [3]: inconclusive: 48.3 µM

CC(C)Cc1ccc(C(C)C(=O)O)cc1 (centres undefined)
outcome [11]: inactive
